Measured values published in article PMC9277809.
These are yes or no findings as the source states them, for the method shown. In cells and extracts the contact can be indirect. Some entries that bind do so weakly or less than the wild type. Sequences can lack the tags named with a protein.

Columns and labels:
[1] = molecular target: T1, OsNPR2-HA (rice (Oryza sativa L.)) (UniProt Q0JJ01); assay: co-IP; GFP-tagged substrate and HA-tagged E3 co-expressed in N. benthamiana leaves by agro-infiltration, 72 h; immunoprecipitated with anti-HA/agarose beads; blot with anti-GFP or anti-HA
T1 sequence: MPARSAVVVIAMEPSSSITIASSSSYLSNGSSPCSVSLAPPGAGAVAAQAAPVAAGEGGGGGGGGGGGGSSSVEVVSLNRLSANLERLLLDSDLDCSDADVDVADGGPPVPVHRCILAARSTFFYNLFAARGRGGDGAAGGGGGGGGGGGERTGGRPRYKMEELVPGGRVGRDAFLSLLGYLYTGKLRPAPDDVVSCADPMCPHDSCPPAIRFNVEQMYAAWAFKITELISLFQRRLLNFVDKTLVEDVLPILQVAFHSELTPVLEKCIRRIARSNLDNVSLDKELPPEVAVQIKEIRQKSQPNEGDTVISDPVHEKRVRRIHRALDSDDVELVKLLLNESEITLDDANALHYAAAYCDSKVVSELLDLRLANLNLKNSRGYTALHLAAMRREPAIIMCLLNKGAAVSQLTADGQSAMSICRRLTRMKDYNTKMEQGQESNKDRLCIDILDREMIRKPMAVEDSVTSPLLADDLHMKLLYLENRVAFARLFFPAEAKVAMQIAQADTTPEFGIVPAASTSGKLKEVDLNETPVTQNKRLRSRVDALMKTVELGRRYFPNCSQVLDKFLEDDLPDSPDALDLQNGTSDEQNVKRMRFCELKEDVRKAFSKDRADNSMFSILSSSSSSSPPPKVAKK

[2] = molecular target: T2, OsNPR3-HA (rice (Oryza sativa L.)) (UniProt Q75HA6); assay: as above
T2 sequence: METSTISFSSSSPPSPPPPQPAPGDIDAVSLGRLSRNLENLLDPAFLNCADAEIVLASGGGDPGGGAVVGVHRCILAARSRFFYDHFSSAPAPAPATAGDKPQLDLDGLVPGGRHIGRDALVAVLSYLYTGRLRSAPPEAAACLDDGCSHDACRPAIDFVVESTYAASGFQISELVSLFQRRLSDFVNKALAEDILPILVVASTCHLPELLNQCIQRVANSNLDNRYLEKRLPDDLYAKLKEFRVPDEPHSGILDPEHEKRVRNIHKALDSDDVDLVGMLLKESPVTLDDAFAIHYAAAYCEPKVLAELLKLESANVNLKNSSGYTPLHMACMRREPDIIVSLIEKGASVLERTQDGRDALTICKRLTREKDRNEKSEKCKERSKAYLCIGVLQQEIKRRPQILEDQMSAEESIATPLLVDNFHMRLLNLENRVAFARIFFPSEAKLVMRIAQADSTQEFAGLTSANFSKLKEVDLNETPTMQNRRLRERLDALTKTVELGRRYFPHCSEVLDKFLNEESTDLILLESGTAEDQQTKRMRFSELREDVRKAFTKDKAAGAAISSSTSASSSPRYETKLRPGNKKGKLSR

B1: NRR-GFP (protein, UniProt Q5ZEF1 1-127)
chain: MDATTTAKRKRPAASDIADDAPTTVDEVSDAEVEEFYAILRRMRDATRRLGARPPPPRAPAWRPSFSWEDFADAPPKQAPPPPQQPADHERVAENATPPRRPAPGLDLNVEPPSDAPATPRSARAPA
binding [1]: binds | binding [2]: binds
